Patent EP4806900A2, “RAS INHIBITORS” (Revolution Medicines, Inc., priority 2019, dated 2021)
For part of its entries the source gives two or more results. They are shown here; other results are not. An entry can have further records. Values that stand side by side differ for a reason that is not stated; dose, time, organism, isomer or construct need not be as stated for each record.

System: NCI-H358 (K-Ras G12C)
Test: CellTiter-Glo cell viability assay, NCI-H358
Type: cell-based, human
Settings: read-out: H358 Cell Viability assay data (K-Ras G12C, IC50); Table 5

Structure (SMILES) | IC50
CC#CC(=O)N1CC[C@H](C(=O)N(C)[C@H](C(=O)N[C@H]2Cc3cc(O)cc(c3)-c3ccc4c(c3)c(c(-c3ccccc3CCOC)n4CC)CC(C)(C)COC(=O)[C@@H]3CCCN(N3)C2=O)C(C)C)C1 | 100 nM to 1 µM and > 1 µM
C=CC(=O)N1CC[C@H](C(=O)N(C)[C@H](C(=O)N[C@H]2Cc3cc(O)cc(c3)-c3ccc4c(c3)c(c(-c3ccccc3CCOC)n4CC)C[C@H](C)COC(=O)[C@@H]3CCCN(N3)C2=O)C(C)C)C1 | 100 nM to 1 µM and > 1 µM
CCn1c(-c2cccnc2[C@H](C)OC)c2c3cc(ccc31)-c1cc(O)cc(c1)C[C@H](NC(=O)[C@H](C(C)C)N(C)C(=O)c1ccc(NC(=O)/C=C/CN(C)C)cn1)C(=O)N1CCC[C@H](N1)C(=O)OCC(C)(C)C2 | 10 nM to 100 nM and 100 nM to 1 µM

Continued, values first:

IC50 | Structure (SMILES)
10 nM to 100 nM and 100 nM to 1 µM | CCn1c(-c2cccnc2COC)c2c3cc(ccc31)-c1cc(O)cc(c1)C[C@H](NC(=O)[C@H](C(C)C)N(C)C(=O)[C@H]1CCN(C(=O)C#CCN3[C@@H](C)COC[C@@H]3C)C1)C(=O)N1CCC[C@H](N1)C(=O)OCC(C)(C)C2
10 nM to 100 nM and 100 nM to 1 µM | CCn1c(-c2cccnc2COC)c2c3cc(ccc31)-c1cc(O)cc(c1)C[C@H](NC(=O)[C@H](C(C)C)N(C)C(=O)[C@H]1CCN(C(=O)C#CC3(N(C)C)COC3)C1)C(=O)N1CCC[C@H](N1)C(=O)OCC(C)(C)C2
100 nM to 1 µM and > 1 µM | C=CC(=O)N1CCC2(CC1)CCN([C@H](C(=O)N[C@H]1Cc3cc(O)cc(c3)-c3ccc4c(c3)c(c(-c3ccccc3CCOC)n4CC)CC(C)(C)COC(=O)[C@@H]3CCCN(N3)C1=O)C(C)C)C2=O
< 10 nM and 100 nM to 1 µM | CCn1c(-c2cccnc2COC)c2c3cc(ccc31)-c1cc(O)cc(c1)CC(NC(=O)C(C(C)C)N(C)C(=O)C1CCN(C(=O)C#CC3CCCN3C)C1)C(=O)N1CCCC(N1)C(=O)OCC(C)(C)C2 (stereo not shown)
